Measured values published in paper PMC4297300, “Different binding motifs of the celiac disease-associated HLA molecules DQ2.5, DQ2.2, and DQ7.5 revealed by relative quantitative proteomics of endogenous peptide repertoires” (Immunogenetics, 2014).

System: HLA-DQ7.5 (DQA1*05, DQB1*03:01)
Experiment: Elution of endogenous peptides from affinity-purified HLA-DQ7.5, relative quantitative LC-MS/MS
Set-up: species or system human
Conditions: peptides acid-eluted from DQ7.5 purified with anti-DQ SPV-L3 from B-LCLs 9037 SWEIG, 9064 AMALA, 9089 BOB; MaxQuant ion peak volume divided by sum of all identified peptides per sample; twenty most abundant

Sequence | Normalized ion peak volume (%)
ASFEAQGALANIAVDK [endogenous MHC class II DRA peptide eluted from DQ7.5] | 1.1%
ASFEAQGALANIAVDKA [endogenous MHC class II DRA peptide eluted from DQ7.5] | 1.7%
ATPLLMQALPMGALPQGP [endogenous CD74 peptide eluted from DQ7.5] | 0.7%
ATPLLMQALPMGALPQGPM [endogenous CD74 peptide eluted from DQ7.5] | 0.7%
IEKVEHSDLSFSKD [endogenous β2-microglobulin peptide eluted from DQ7.5] | 0.6%
IEKVEHSDLSFSKDWS [endogenous β2-microglobulin peptide eluted from DQ7.5] | 0.7%
IPELNKVARAAAEVAG [endogenous transferrin receptor peptide eluted from DQ7.5] | 0.6%
IPELNKVARAAAEVAGQF [endogenous transferrin receptor peptide eluted from DQ7.5] | 1.3%
LMQALPMGALPQGP [endogenous CD74 peptide eluted from DQ7.5] | 0.6%
LPKPPKPVSKMRMATPLLMQALP [endogenous CD74 (CLIP) peptide eluted from DQ2.5, DQ2.2 and DQ7.5] | 1.1%
NPGGYVAYSKAATVTG [endogenous transferrin receptor peptide eluted from DQ7.5] | 1.5%
NPGGYVAYSKAATVTGK [endogenous transferrin receptor peptide eluted from DQ7.5] | 1.3%
NPGGYVAYSKAATVTGKL [endogenous transferrin receptor peptide eluted from DQ7.5] | 1.7%
SFEAQGALANIAVDKA [endogenous MHC class II DRA peptide eluted from DQ7.5] | 0.7%
TPLLMQALPMGALPQ [endogenous CD74 peptide eluted from DQ7.5] | 2.5%
TPLLMQALPMGALPQGP [endogenous CD74 peptide eluted from DQ7.5] | 1.5%
TPLLMQALPMGALPQGPM [endogenous CD74 peptide eluted from DQ7.5] | 1.4%
VDNALQSGNSQESVTEQ [endogenous Ig kappa chain C region peptide eluted from DQ7.5] | 0.8%
VPVPQFGGGDPADIIHD [endogenous integral membrane protein 2C peptide eluted from DQ7.5] | 1.4%
VPVPQFGGGDPADIIHDF [endogenous integral membrane protein 2C peptide eluted from DQ7.5] | 1.3%
